{"source": "the supplement of paper PMC9135407", "test_system": "primary human hepatic stellate cells (donor 1)", "assay": "percent Bodipy-positive cells; higher = more lipid droplet accumulation", "details": "48 h", "key": {"[1]": {"details": "library stock concentration: 9.7 mM"}, "[2]": {"details": "library stock concentration: 3.33 mM"}, "[3]": {"details": "library stock concentration: 10 mM"}, "[4]": {"details": "library stock concentration: 6 mM"}}, "note": "Values joined by “and” are separate entries in the source; they are usually repeats but may differ in a detail not shown here. Equal values may be shown once. Where a name gives a salt, the structure may show the parent alone. ± gives the standard deviation of the averaged measurements. Some of the results follow. Baselines shift from plate to plate; read single values as rough.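 Assay uses culture-activated primary human stellate myofibroblasts; lipid droplet recovery indicates inactivation. Measured: proportion of Hoechst-counted cells over a plate-specific Bodipy cutoff, duplicate wells, DMSO and nortriptyline as per-plate negative and positive controls. A hit scores, control-normalized, above the plate's top-tenth-percentile nortriptyline wells or ranks among its three best wells. Final well concentrations not reported.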", "data": [{"smiles": "CCCCC/C=C\\C/C=C\\C/C=C\\C/C=C\\CCCC(=O)NCCS(=O)(=O)O", "note": "[N-Arachidonoyl Taurine]", "values": [{"measurement": "percent Bodipy-positive cells", "setting": "library stock concentration: 1 mM", "value": "7.956 ± 0.078", "unit": "%"}]}, {"smiles": "CN(C)C(=O)C(CCN1CCC(O)(c2ccc(Cl)cc2)CC1)(c1ccccc1)c1ccccc1.Cl", "values": [{"measurement": "percent Bodipy-positive cells", "setting": "[1]", "value": 100, "unit": "%"}]}, {"smiles": "CN1[C@@H]2CC[C@H]1C[C@@H](OC(=O)[C@H](CO)c1ccccc1)C2", "note": "[Hyoscyamine]", "values": [{"measurement": "percent Bodipy-positive cells", "setting": "[2]", "value": "8.9 ± 4.9", "unit": "%"}, {"measurement": "percent Bodipy-positive cells", "setting": "library stock concentration: 6.9 mM", "value": "2.84 ± 0.064", "unit": "%"}, {"measurement": "percent Bodipy-positive cells", "setting": "[3]", "value": "15.1% and 26%"}]}, {"smiles": "CN1[C@@H]2CC[C@H]1C[C@@H](OC(=O)[C@H](CO)c1ccccc1)C2", "note": "[L-Hyoscyamine]", "values": [{"measurement": "percent Bodipy-positive cells", "setting": "[3]", "value": "29.7 ± 19", "unit": "%"}]}, {"smiles": "CN1[C@@H]2CC[C@H]1C[C@@H](OC(=O)[C@H](CO)c1ccccc1)C2", "note": "[Hyoscyamine (L)]", "values": [{"measurement": "percent Bodipy-positive cells", "value": "20 ± 1.2", "unit": "%"}]}, {"smiles": "CN(C)CCN(C)CCc1ccc(Cl)c(Cl)c1", "note": "[BD 1047 dihydrobromide]", "values": [{"measurement": "percent Bodipy-positive cells", "setting": "[3]", "value": "50.1 ± 3.1", "unit": "%"}]}, {"smiles": "Nc1nc(N)nc(NC2CC2)n1", "values": [{"measurement": "percent Bodipy-positive cells", "setting": "[3]", "value": "28.68 ± 0.28", "unit": "%"}]}, {"smiles": "Nc1nc(N)nc(NC2CC2)n1", "note": "[Cyromazine]", "values": [{"measurement": "percent Bodipy-positive cells", "setting": "[2]", "value": "11.3 ± 3.9", "unit": "%"}, {"measurement": "percent Bodipy-positive cells", "setting": "[3]", "value": "52.42 ± 0.26", "unit": "%"}]}, {"smiles": "Cc1ccc(-c2nc3ccc(C)cn3c2CC(=O)N(C)C)cc1", "note": "[Zolpidem]", "values": [{"measurement": "percent Bodipy-positive cells", "setting": "[3]", "value": "26.1 ± 7.2", "unit": "%"}]}, {"smiles": "Cc1ccc(-c2nc3ccc(C)cn3c2CC(=O)N(C)C)cc1", "values": [{"measurement": "percent Bodipy-positive cells", "setting": "[3]", "value": "12.2 ± 1.6", "unit": "%"}]}, {"smiles": "C[C@H](N)CN1CCc2ccc(Br)cc21", "note": "[VER-3323 hemifumarate salt]", "values": [{"measurement": "percent Bodipy-positive cells", "setting": "[3]", "value": "84.166 ± 0.005", "unit": "%"}]}, {"smiles": "COc1cc2c(cc1O)C(CCc1ccc(Cl)cc1)N(C)CC2.Cl", "note": "(stereo unspecified)", "values": [{"measurement": "percent Bodipy-positive cells", "setting": "[3]", "value": "62.9 ± 8.8", "unit": "%"}]}, {"smiles": "N#Cc1nn(-c2c(Cl)cc(C(F)(F)F)cc2Cl)c(N)c1[S+]([O-])C(F)(F)F", "note": "(stereo unspecified) [Fipronil]", "values": [{"measurement": "percent Bodipy-positive cells", "setting": "[3]", "value": "41 ± 7.5", "unit": "%"}]}, {"smiles": "O=C1C[C@@H]2OCC=C3CN4CC[C@]56c7ccccc7N1[C@H]5[C@H]2[C@H]3C[C@H]46", "note": "[Strychnine HCl]", "values": [{"measurement": "percent Bodipy-positive cells", "setting": "[4]", "value": "13.4 ± 2.1", "unit": "%"}]}, {"smiles": "O=C1C[C@@H]2OCC=C3CN4CC[C@]56c7ccccc7N1[C@H]5[C@H]2[C@H]3C[C@H]46", "note": "[Strychnine]", "values": [{"measurement": "percent Bodipy-positive cells", "setting": "[4]", "value": "15 ± 7.1", "unit": "%"}, {"measurement": "percent Bodipy-positive cells", "setting": "[3]", "value": "23.9 ± 4", "unit": "%"}]}, {"smiles": "CC[N+](CC)(CCCNC1=CC(=O)C(NCCC[N+](CC)(CC)Cc2ccccc2)=CC1=O)Cc1ccccc1", "note": "[Benzoquinonium dibromide]", "values": [{"measurement": "percent Bodipy-positive cells", "setting": "[3]", "value": "5.39 ± 0.46", "unit": "%"}]}, {"smiles": "CC(C)C[C@@H](N)C1(c2ccc(Cl)cc2)CCC1", "values": [{"measurement": "percent Bodipy-positive cells", "setting": "[3]", "value": "62.3 ± 2.3", "unit": "%"}]}, {"smiles": "CC[C@@]1(O)C(=O)OCc2c1cc1n(c2=O)Cc2cc3ccccc3nc2-1", "note": "[(S)-(+)-Camptothecin]", "values": [{"measurement": "percent Bodipy-positive cells", "setting": "[3]", "value": "59.3 ± 5", "unit": "%"}]}, {"smiles": "CC[C@@]1(O)C(=O)OCc2c1cc1n(c2=O)Cc2cc3ccccc3nc2-1", "note": "[Camptothecine (S,+)]", "values": [{"measurement": "percent Bodipy-positive cells", "value": "29.2 ± 10", "unit": "%"}]}, {"smiles": "CC[C@@]1(O)C(=O)OCc2c1cc1n(c2=O)Cc2cc3ccccc3nc2-1", "note": "[Camptothecin]", "values": [{"measurement": "percent Bodipy-positive cells", "setting": "[2]", "value": "12.5 ± 1.4", "unit": "%"}, {"measurement": "percent Bodipy-positive cells", "setting": "library stock concentration: 5.7 mM", "value": "10.6 ± 4.4", "unit": "%"}]}, {"smiles": "CN1c2ccccc2C(NCCCCCCC(=O)O)c2ccc(Cl)cc2S1(=O)=O", "note": "(stereo unspecified) [Tianeptine]", "values": [{"measurement": "percent Bodipy-positive cells", "setting": "[3]", "value": "4.2 ± 2.6", "unit": "%"}]}, {"smiles": "CN1c2ccccc2C(NCCCCCCC(=O)O)c2ccc(Cl)cc2S1(=O)=O", "note": "(stereo unspecified) [Tianeptine sodium]", "values": [{"measurement": "percent Bodipy-positive cells", "setting": "[2]", "value": "5.81 ± 3.6", "unit": "%"}, {"measurement": "percent Bodipy-positive cells", "setting": "[3]", "value": "14.9 ± 6.5", "unit": "%"}]}, {"smiles": "C#C[C@]1(O)CC[C@H]2[C@@H]3CCC4=Cc5nc6nc7ccccc7n6cc5C[C@]4(C)[C@H]3CC[C@@]21C", "values": [{"measurement": "percent Bodipy-positive cells", "setting": "[3]", "value": "35.5 ± 3.7", "unit": "%"}]}, {"smiles": "COc1ccc(C[C@H]2NC[C@H](O)[C@H]2OC(C)=O)cc1", "note": "[Anisomycin] [listing 1 of 2 here]", "values": [{"measurement": "percent Bodipy-positive cells", "setting": "[3]", "value": "84.5 ± 1.7", "unit": "%"}]}, {"smiles": "CCC(=O)O[C@@](Cc1ccccc1)(c1ccccc1)[C@@H](C)CN(C)C", "note": "[Levopropoxyphene napsylate]", "values": [{"measurement": "percent Bodipy-positive cells", "value": "24.8 ± 7.2", "unit": "%"}]}, {"smiles": "CC(C)(C)c1cc(C=C(C#N)C#N)cc(C(C)(C)C)c1O", "note": "[Tyrphostin 9]", "values": [{"measurement": "percent Bodipy-positive cells", "setting": "[3]", "value": "90.4 ± 2.9", "unit": "%"}]}, {"smiles": "CC(C)=CCC[C@]1(C)C=Cc2c(O)c3c(c(CC=C(C)C)c2O1)O[C@]12C(=C[C@@H]4C[C@H]1C(C)(C)O[C@@]2(C/C=C(/C)C(=O)O)C4=O)C3=O", "note": "[Gambogic acid]", "values": [{"measurement": "percent Bodipy-positive cells", "setting": "[3]", "value": 100, "unit": "%"}]}, {"smiles": "CCNC(=O)C[C@@H]1N=C(c2ccc(Cl)cc2)c2cc(OC)ccc2-n2c(C)nnc21", "values": [{"measurement": "percent Bodipy-positive cells", "setting": "library stock concentration: 80 uM", "value": "41 ± 1.6", "unit": "%"}, {"measurement": "percent Bodipy-positive cells", "setting": "library stock concentration: 400 uM", "value": "44.3 ± 20", "unit": "%"}, {"measurement": "percent Bodipy-positive cells", "setting": "library stock concentration: 2 mM", "value": "59.8 ± 13", "unit": "%"}, {"measurement": "percent Bodipy-positive cells", "setting": "[2]", "value": "35 ± 7.3", "unit": "%"}, {"measurement": "percent Bodipy-positive cells", "setting": "[3]", "value": "56.1% and 60.8%"}]}, {"smiles": "NCCc1cc(O)c(O)cc1O", "note": "[Oxidopamine hydrochloride]", "values": [{"measurement": "percent Bodipy-positive cells", "setting": "[1]", "value": "1.36 ± 1.2", "unit": "%"}, {"measurement": "percent Bodipy-positive cells", "setting": "[3]", "value": "8.91 ± 3.5", "unit": "%"}]}, {"smiles": "COc1ccc(C[C@H]2NC[C@H](O)[C@H]2OC(C)=O)cc1", "note": "[Anisomycin] [listing 2 of 2 here]", "values": [{"measurement": "percent Bodipy-positive cells", "value": "88.9 ± 2.7", "unit": "%"}]}, {"smiles": "C[N+](C)(C)CCCCCCCCCC[N+](C)(C)C", "note": "[Decamethonium bromide]", "values": [{"measurement": "percent Bodipy-positive cells", "value": "4.89 ± 0.47", "unit": "%"}, {"measurement": "percent Bodipy-positive cells", "setting": "library stock concentration: 4.8 mM", "value": "2.8 ± 0.46", "unit": "%"}]}, {"smiles": "C[N+](C)(C)CCCCCCCCCC[N+](C)(C)C", "note": "[Decamethonium dibromide]", "values": [{"measurement": "percent Bodipy-positive cells", "setting": "[3]", "value": "44 ± 16", "unit": "%"}]}, {"smiles": "C[N+](C)(C)CCCCCCCCCC[N+](C)(C)C", "note": "[Decamethonium Bromide]", "values": [{"measurement": "percent Bodipy-positive cells", "setting": "[2]", "value": "8.03 ± 0.88", "unit": "%"}, {"measurement": "percent Bodipy-positive cells", "setting": "[3]", "value": "22.5 ± 5.9", "unit": "%"}]}, {"smiles": "c1ccc2nc(N3CCNCC3)ccc2c1", "note": "[Quipazine maleate]", "values": [{"measurement": "percent Bodipy-positive cells", "setting": "library stock concentration: 6.1 mM", "value": "39.4 ± 3", "unit": "%"}]}, {"smiles": "c1ccc2nc(N3CCNCC3)ccc2c1", "note": "[Quipazine dimaleate]", "values": [{"measurement": "percent Bodipy-positive cells", "setting": "[3]", "value": "25 ± 3.8", "unit": "%"}]}, {"smiles": "c1ccc2nc(N3CCNCC3)ccc2c1", "note": "[Quipazine dimaleate salt]", "values": [{"measurement": "percent Bodipy-positive cells", "value": "56.7 ± 8.8", "unit": "%"}]}, {"smiles": "CN1C[C@H](C(=O)N[C@]2(C)O[C@@]3(O)[C@@H]4CCCN4C(=O)[C@H](Cc4ccccc4)N3C2=O)C[C@@H]2c3cccc4[nH]cc(c34)C[C@H]21", "note": "[Dihydroergotamine mesylate]", "values": [{"measurement": "percent Bodipy-positive cells", "setting": "library stock concentration: 2.9 mM", "value": "5.09 ± 6.6", "unit": "%"}, {"measurement": "percent Bodipy-positive cells", "setting": "[3]", "value": "28.8% and 24.4%"}]}]}
